# Small-molecule microarray binding calls

Data from the ROBIN nucleic acid binder screens, doi:10.1002/anie.202211358.

Targets (5′ to 3′):
TPP: TPP riboswitch RNA three-way junction, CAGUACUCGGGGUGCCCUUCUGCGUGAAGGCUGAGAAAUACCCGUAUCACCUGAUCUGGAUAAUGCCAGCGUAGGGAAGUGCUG. About 160 hits among about 24,000 compounds.
PreQ1: PreQ1 riboswitch RNA pseudoknot, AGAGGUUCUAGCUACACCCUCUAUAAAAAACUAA. From B. subtilis. About 170 hits among about 24,000 compounds.
SAM-II: SAM-II riboswitch RNA pseudoknot, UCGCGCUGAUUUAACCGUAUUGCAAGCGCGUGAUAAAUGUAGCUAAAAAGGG. About 200 hits among about 21,000 compounds.

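Each compound is printed as two spots on a slide made to bind it covalently, so it has no test concentration; the read-out is fluorescence of the bound, labelled oligonucleotide. The data file lists only calls. An earlier report of the laboratory on the PreQ1, TPP and SAM-II riboswitches (doi:10.1038/s41467-019-09493-3) used 1 µM RNA for 2 h and required a mean Z-score above 3 (spot signal-to-noise against the whole library), a score well above that on a control array, and duplicate spots agreeing (coefficient of variation under 100); it then also set aside compounds that hit other targets, which this list keeps. The cut-offs behind this list may differ. These are primary screening calls, not affinities; a compound without a hit may have attached poorly or may still bind in solution.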
Key: active = hit, inactive = tested without a hit.
This is an unselected part of the compounds tested.
A dash means that no call is listed here.

compound | TPP | PreQ1 | SAM-II
COC(=O)c1n[nH]cc1-c1cc(-c2ccc(C(=O)O)cc2)nc(N)c1C#N | inactive | inactive | inactive
CC1CC(C)CN(C(=O)Cn2c(-c3nonc3N)nc3ccccc32)C1 (stereo not shown) | inactive | inactive | inactive
C=CCNc1ncccc1-c1nc(-c2ccc(OC)cc2)no1 | inactive | inactive | -
COc1ccccc1Nc1nc2ccccc2c2nnc(C)n12 | inactive | inactive | -
Cc1cccc(-c2ncc(CNC(C)c3cn4ccsc4n3)cn2)c1 (stereo not shown) | inactive | inactive | inactive
O=C(C(O)c1ccc(F)cc1)N1CC(c2ccncc2)C1 (stereo not shown) | inactive | inactive | inactive
CCOC(=O)c1cnc2c(C)cc(C)cc2c1NCCO | inactive | inactive | inactive
C=CCOC(=O)C1=C(C)OC(N)=C(C#N)C12C(=O)N(C)c1ccccc12 (stereo not shown) | inactive | inactive | inactive
CCCc1cc(NC(C)C)n2c(nc3ccccc32)c1C#N | inactive | inactive | -
COc1ccc(S(=O)(=O)N2CCN(c3cc(C)nc(NC4CCCCC4)n3)CC2)cc1Cl | inactive | inactive | -
CCOC(=O)c1cnc(SC)nc1-c1ccc(F)c(CO)c1 | inactive | inactive | inactive
CCOC(=O)c1ccc(Nc2cc(C)nc3nc(C)nn23)cc1 | inactive | inactive | inactive
CC(C)NC(=O)[C@@H]1C[C@H](N)CN1S(=O)(=O)c1ccc2c(c1)OCCO2 | inactive | inactive | inactive
COc1ccc(-c2cc(Nc3cc(Cl)ccc3O)nc(C)n2)cc1 | inactive | inactive | -
Cc1noc(N)c1C(=O)Nc1ccc2c(c1)OCO2 | inactive | inactive | inactive
N#Cc1cnn2c(NC3CCCCCC3)c(-c3ccccc3F)[nH]c12 | inactive | inactive | -
CCc1ccc(NS(=O)(=O)c2cc(Br)cnc2N)cc1 | inactive | inactive | -
O=C(NCc1ccccn1)C1CNCCN1C(=O)CCN1CCCC1=O (stereo not shown) | inactive | inactive | inactive
COc1ccnc(CN2CC[C@H](N3CCOCC3)[C@H](CCCO)C2)c1OC | inactive | inactive | inactive
Nc1nc(SCc2ccccc2)sc1C(=O)N1CCCCC1 | inactive | inactive | inactive
O=C(c1cnn(-c2ccccc2)c1)N1C[C@@H]2CCCN[C@@H]2C1 | inactive | inactive | inactive
O=C1CCCc2occ(C(=O)N(CC=Cc3ccccc3)CCO)c21 | inactive | inactive | inactive
CNC(=O)[C@@H]1C[C@@H](N)CN1C(=O)c1cc2c(s1)CCCC2 | inactive | inactive | inactive
CCc1ccccc1NC1c2ccccc2C(=O)N1c1cccnc1 (stereo not shown) | inactive | inactive | inactive
Cc1ccc(CNS(=O)(=O)c2ccc3c(c2)CN(C(=O)C(C)(C)N)CC3)o1 | inactive | inactive | inactive
Nc1c(C(=O)NCc2ccccc2)nnn1Cc1ccccc1 | inactive | inactive | inactive
Cc1nc2c(c(NCCN3CCOC3=O)n1)CNC2 | inactive | inactive | inactive
COc1ccc(-c2nc(CN)no2)cc1OC | inactive | inactive | inactive
O=C(Nc1cccc(Nc2ncc(Br)c(NCCc3cnc[nH]3)n2)c1)N1CCCC1 | inactive | inactive | inactive
Cc1nc(CNCCC(=O)Nc2ccc(C(N)=O)cc2)nc2c1CCCC2 | inactive | inactive | inactive
COc1ccccc1CNc1ccc2c(c1)ncn2C1CCCCC1 | inactive | inactive | inactive
CN1CCN(C(=O)c2cnc(N3CCCC3)nc2)CC12CCNCC2 | inactive | inactive | inactive
OC[C@]12COc3ccccc3[C@H]1CN(Cc1cn3ccccc3n1)C2 | inactive | inactive | inactive
CC1=NN(c2ccccc2)C(=O)C1(C)N (stereo not shown) | inactive | inactive | inactive
C=CCn1[nH]c(CNc2ccc(F)cc2)nc1=O | inactive | inactive | inactive
CCC(=O)NC[C@H](Cc1ccc(OCCc2nc(-c3ccccc3)oc2C)cc1)NC(C)=CC(=O)c1ccc(C(F)(F)F)cc1 | inactive | inactive | inactive
COc1cc(OC)c2c(=O)cc(-c3cccnc3)oc2c1 | inactive | inactive | inactive
CCOc1ccc(-c2ccnc(N3CC[C@H](O)[C@@H](O)C3)n2)cc1C(=O)O | inactive | inactive | inactive
COc1ccc(NC2CCCCC2NS(=O)(=O)c2ccc(Cl)cc2)cc1 (stereo not shown) | inactive | inactive | inactive
CCc1nc2nc(C)cc(Nc3ccc(C)cc3Cl)n2n1 | inactive | inactive | inactive
O=C(Cn1ncc(N2CCCC2)cc1=O)N1CCNC(c2ccccc2)C1 (stereo not shown) | inactive | inactive | inactive
Cc1occc1C(=O)N1CC[C@@H](c2ccc3ccccc3c2)[C@H](O)C1 | inactive | inactive | inactive
O=c1[nH]c(=O)n(CCO)c2nonc12 | inactive | inactive | inactive
CCOC(=O)C1CCN(c2c(NCCCN3CCCCC3)c(=O)c2=O)CC1 | inactive | inactive | inactive
CC(C)CC(N(C)C)C1(c2ccc(Cl)cc2)CCC1 (stereo not shown) | inactive | inactive | inactive
CO[C@H]1CN(C(=O)c2cccc(C(=O)O)c2)CC[C@H]1N | inactive | inactive | inactive
CN1CC2(CCNCC2)CC1C(=O)NCCOc1ccccc1Cl (stereo not shown) | inactive | inactive | inactive
Nc1nonc1C(=O)NCCNCc1ccc(Br)cc1 | inactive | inactive | -
CC(NC1CCSCC1)c1ccccc1-n1cccn1 (stereo not shown) | inactive | inactive | inactive
COc1ccccc1S(=O)(=O)N1C[C@H](C(C)C)[C@@H](N)C1 | inactive | inactive | inactive

The first 6 entries again:

compound	TPP	PreQ1	SAM-II
COC(=O)c1n[nH]cc1-c1cc(-c2ccc(C(=O)O)cc2)nc(N)c1C#N	inactive	inactive	inactive
CC1CC(C)CN(C(=O)Cn2c(-c3nonc3N)nc3ccccc32)C1 (stereo not shown)	inactive	inactive	inactive
C=CCNc1ncccc1-c1nc(-c2ccc(OC)cc2)no1	inactive	inactive	-
COc1ccccc1Nc1nc2ccccc2c2nnc(C)n12	inactive	inactive	-
Cc1cccc(-c2ncc(CNC(C)c3cn4ccsc4n3)cn2)c1 (stereo not shown)	inactive	inactive	inactive
O=C(C(O)c1ccc(F)cc1)N1CC(c2ccncc2)C1 (stereo not shown)	inactive	inactive	inactive